Test results reported in paper PMC6517413.
No constants are given. Whether binding was seen depends on the method and setting. Some entries that bind do so weakly or less than the wild type.

The chains behind the UniProt entries cited, without tags or fusion partners. Where a name states a change or a piece, a line headed by the entry shows the natural chain unless it says otherwise.
UniProt P49735: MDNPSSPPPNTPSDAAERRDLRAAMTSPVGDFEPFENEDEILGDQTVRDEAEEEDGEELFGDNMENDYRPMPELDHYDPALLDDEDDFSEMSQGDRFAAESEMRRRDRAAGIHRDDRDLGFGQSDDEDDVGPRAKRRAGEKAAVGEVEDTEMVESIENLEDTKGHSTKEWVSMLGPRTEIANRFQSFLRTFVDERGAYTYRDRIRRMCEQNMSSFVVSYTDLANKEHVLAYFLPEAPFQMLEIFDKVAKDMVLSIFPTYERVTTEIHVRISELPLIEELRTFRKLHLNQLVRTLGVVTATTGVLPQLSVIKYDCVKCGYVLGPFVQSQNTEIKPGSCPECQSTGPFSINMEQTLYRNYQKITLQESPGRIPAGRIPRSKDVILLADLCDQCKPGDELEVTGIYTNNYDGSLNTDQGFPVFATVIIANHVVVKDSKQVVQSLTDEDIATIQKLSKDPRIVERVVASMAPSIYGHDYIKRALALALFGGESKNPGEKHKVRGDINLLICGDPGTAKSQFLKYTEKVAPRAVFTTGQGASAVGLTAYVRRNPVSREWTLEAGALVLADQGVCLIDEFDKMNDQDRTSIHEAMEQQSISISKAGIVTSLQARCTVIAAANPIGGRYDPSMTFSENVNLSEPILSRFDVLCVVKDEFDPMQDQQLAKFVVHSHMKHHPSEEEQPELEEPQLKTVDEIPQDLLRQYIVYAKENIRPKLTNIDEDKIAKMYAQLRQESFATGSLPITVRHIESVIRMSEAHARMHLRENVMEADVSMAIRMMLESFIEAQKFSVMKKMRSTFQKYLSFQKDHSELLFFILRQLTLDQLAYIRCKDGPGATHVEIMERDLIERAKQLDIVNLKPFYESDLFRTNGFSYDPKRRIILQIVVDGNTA
UniProt Q9XYU1: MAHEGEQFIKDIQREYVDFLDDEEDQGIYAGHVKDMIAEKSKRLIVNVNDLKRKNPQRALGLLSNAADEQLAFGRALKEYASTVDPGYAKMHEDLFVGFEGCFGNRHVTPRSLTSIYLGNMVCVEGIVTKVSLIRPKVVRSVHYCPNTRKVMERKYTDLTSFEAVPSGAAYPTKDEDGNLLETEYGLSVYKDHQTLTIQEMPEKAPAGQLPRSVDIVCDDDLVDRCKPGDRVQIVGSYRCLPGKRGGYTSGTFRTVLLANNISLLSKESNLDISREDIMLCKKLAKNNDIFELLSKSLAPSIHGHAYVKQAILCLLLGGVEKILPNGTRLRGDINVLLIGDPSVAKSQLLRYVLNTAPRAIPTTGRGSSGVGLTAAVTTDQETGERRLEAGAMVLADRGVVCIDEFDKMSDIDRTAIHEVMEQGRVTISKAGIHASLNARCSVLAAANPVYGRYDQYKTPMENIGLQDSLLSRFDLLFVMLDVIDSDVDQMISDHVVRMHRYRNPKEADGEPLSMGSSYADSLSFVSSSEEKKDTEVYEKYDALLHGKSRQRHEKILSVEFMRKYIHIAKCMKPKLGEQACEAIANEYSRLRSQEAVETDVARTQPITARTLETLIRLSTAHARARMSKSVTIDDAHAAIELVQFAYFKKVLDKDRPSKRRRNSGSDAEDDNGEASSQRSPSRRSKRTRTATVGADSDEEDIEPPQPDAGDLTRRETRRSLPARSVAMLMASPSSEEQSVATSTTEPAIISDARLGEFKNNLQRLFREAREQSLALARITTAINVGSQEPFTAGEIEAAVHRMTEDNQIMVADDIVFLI
UniProt Q26454: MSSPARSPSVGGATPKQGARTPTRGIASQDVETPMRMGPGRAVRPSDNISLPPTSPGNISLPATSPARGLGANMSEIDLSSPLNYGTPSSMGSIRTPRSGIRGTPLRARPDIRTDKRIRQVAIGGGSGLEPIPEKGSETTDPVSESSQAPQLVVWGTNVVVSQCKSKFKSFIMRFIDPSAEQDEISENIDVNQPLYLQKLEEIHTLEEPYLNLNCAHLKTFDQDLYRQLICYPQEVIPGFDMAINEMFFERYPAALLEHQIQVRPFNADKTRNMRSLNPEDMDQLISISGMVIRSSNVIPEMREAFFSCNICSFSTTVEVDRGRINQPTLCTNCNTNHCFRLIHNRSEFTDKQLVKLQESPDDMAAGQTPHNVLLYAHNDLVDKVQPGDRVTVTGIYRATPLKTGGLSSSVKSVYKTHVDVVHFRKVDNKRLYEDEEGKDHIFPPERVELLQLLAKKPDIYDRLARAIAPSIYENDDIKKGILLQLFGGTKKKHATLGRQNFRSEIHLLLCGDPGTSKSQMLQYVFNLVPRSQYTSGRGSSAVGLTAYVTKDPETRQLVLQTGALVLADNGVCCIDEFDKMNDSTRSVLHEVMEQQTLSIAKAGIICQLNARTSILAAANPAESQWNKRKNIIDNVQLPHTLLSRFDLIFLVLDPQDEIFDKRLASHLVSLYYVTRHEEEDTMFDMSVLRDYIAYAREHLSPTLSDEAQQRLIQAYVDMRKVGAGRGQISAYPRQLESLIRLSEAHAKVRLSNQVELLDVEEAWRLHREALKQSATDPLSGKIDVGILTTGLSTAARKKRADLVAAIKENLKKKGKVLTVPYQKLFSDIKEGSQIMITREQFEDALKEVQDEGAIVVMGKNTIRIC
UniProt Q9VGW6: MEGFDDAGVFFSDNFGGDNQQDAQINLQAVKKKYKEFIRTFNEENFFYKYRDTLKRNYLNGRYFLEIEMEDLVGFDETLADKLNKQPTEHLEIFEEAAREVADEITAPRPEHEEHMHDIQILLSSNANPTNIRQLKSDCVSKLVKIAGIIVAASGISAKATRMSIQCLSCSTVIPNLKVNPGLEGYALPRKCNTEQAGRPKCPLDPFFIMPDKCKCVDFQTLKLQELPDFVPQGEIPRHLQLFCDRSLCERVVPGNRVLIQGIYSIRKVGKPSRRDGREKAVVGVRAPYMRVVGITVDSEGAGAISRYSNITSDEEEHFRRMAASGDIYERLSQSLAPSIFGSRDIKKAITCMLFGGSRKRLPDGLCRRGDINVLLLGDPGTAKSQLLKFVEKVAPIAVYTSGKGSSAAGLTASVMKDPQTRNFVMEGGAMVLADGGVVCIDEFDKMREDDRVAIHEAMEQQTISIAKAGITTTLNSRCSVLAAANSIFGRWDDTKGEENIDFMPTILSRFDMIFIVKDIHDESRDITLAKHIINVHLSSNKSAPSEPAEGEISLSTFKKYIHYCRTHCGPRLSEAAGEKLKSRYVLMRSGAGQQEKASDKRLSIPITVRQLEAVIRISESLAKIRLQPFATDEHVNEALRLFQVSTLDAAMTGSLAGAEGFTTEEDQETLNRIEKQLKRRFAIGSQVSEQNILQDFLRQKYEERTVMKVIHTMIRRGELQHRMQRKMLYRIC
UniProt Q9V461: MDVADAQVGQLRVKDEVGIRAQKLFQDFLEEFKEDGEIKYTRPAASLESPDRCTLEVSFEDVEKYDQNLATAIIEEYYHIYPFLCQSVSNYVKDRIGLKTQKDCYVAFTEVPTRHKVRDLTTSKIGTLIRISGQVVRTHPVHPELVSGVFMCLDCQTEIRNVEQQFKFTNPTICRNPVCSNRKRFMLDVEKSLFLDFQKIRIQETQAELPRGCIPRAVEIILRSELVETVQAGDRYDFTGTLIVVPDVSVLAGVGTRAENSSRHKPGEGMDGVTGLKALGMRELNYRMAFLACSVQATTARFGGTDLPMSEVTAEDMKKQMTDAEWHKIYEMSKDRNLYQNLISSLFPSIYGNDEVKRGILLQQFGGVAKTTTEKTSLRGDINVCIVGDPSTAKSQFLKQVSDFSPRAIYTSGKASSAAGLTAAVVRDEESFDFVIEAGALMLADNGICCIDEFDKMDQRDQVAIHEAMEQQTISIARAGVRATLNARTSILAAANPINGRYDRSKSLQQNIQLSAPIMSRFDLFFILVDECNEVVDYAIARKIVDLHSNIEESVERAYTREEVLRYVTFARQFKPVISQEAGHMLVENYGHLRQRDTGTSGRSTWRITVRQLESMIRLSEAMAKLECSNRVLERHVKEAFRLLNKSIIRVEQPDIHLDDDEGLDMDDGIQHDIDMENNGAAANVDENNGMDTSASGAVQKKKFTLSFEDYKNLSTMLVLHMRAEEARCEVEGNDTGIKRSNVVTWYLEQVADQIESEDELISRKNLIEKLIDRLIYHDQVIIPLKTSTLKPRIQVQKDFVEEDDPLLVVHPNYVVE
UniProt Q9XYU0: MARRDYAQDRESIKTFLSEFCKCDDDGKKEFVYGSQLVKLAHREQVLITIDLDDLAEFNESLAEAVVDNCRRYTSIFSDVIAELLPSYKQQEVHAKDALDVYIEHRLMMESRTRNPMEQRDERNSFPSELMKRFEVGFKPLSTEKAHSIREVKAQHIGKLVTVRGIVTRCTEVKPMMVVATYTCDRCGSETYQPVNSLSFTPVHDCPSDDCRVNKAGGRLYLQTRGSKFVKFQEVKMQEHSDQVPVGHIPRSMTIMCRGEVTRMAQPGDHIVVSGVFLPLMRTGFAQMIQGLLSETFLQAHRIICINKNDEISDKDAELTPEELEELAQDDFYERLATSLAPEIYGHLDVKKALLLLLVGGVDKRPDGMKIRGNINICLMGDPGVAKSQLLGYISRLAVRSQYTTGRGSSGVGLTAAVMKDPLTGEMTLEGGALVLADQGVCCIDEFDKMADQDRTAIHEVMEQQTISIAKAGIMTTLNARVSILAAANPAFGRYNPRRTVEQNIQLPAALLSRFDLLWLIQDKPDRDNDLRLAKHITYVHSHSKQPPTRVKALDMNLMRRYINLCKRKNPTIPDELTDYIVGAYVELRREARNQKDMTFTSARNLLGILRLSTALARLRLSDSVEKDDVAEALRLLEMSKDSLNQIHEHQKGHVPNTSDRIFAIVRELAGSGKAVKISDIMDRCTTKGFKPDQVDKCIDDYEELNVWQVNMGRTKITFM

Molecular target: Drosophila melanogaster Mcm2-7 hetero-hexamer, as part of purified recombinant DmCMG (Drosophila melanogaster) (UniProt P49735+Q9XYU1+Q26454+Q9VGW6+Q9V461+Q9XYU0)
Assay: co-purification (anti-FLAG affinity, then ion exchange), SDS-PAGE with Coomassie stain; 11 DmCMG subunits co-expressed in Hi five cells; lysate at 100 mM KCl bound to M2 agarose, eluted with DYKDDDDK peptide, passed through HiTrap SPFF, then two MonoQ KCl gradients (CMG eluted at ~400-450 mM KCl); FLAG-tagged subunit not stated

binding: binds
B1: Drosophila melanogaster Cdc45, as part of purified recombinant DmCMG (protein, UniProt O96989 1-575)
chain: MFVQDLRNDFYRQLVGKRILIVVNYDIDAICASRILQALFKYDHMLYTVVPIMGVTGLKRAYGEHQGDVKYVVLVNCGGCVDIVELLQPSDDVTFFICDSHRPLDVCNIYSDRQVCILGDASLEENIPAFETIFYDSEGEDEDEDESSDTEQQHDDSGAGESDQEDQAPRSRKLSRLERHEQRILKQRARRQWESERDRIMFEYTQFSYYGRSAALMVFELAWKLSKDNMDLLWWAIVGITEQLLLGKIESGAYTLELEQIQSHVSRLTNKTNDQNTMSASKITFENDLHLVLYRHWPVTESMRYSRYSSCQLKLWTLRGEKRLHELLLEMGLPLVHARQTYGAMDLVLRKEFFSMVERLAEKYDIADIVYGTFTLSYGYRSRYAAADYVYALLAIMESVKKHKTPEDCFLEASDALSRQHKQLLSAGIDQAKLLHAAVFRQVQSSLEARQVHSAGSFFYYVLQEEHAFFSYPYALGLLARFLLRGHVATSRARQASDLPLIASCPLNASEGMCLLVGIVPVREDSPRNFFGKAFEQAAQKSGVALLQDFFEPAVVQLRQSDLTRFLDSLTVLLA
